Literature values as cited in patent US11197860B2 (Eli Lilly and Company, priority 2018, dated 2021).
At least one compound was matched to its structure with a doubt left.

Tests used:
[1] = PSC patients; Stiehl et al. 2002
[2] = PBC patients

| Structure (SMILES) | occlusion of major bile ducts in the liver [1] | share of patient population in which use is effective [2] |
| --- | --- | --- |
| C[C@H](CCC(=O)O)[C@H]1CC[C@H]2[C@@H]3[C@@H](O)C[C@@H]4C[C@H](O)CC[C@]4(C)[C@H]3CC[C@]12C [UDCA, ursodeoxycholic acid] | still occurred in a majority of the patients | – |
| CC[C@H]1[C@@H](O)[C@@H]2[C@H](CC[C@]3(C)[C@@H]([C@H](C)CCC(=O)O)CC[C@@H]23)[C@@]2(C)CC[C@@H](O)C[C@@H]12 [obeticholic acid, Obeticholic acid] | – | ~55% |
